Test results published in the supplement of paper PMC12823440, “Inhibitors supercharge kinase turnover through native proteolytic circuits” (Nature, 2025).
Where a name gives a salt, the structure may show the parent alone. The list shows a part of the results. Hit calls seldom repeat between salt and free forms of one compound.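 Kinases were expressed as nanoluciferase fusions in K562 cells and luminescence was read every 4 h between 2 and 18 h as percent of control, DMSO set to 100% and a positive control to 0%. A time point counts as decreased when the signal drops significantly (2 sigma). The hit call is the authors' own, does not follow from the count of time points alone, and its rule is not shown.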

Sequences of proteins named here, by UniProt entry; tags and fusion partners are left off. A change or cut given only in a name is not applied to a line headed by its entry.
UniProt P48729: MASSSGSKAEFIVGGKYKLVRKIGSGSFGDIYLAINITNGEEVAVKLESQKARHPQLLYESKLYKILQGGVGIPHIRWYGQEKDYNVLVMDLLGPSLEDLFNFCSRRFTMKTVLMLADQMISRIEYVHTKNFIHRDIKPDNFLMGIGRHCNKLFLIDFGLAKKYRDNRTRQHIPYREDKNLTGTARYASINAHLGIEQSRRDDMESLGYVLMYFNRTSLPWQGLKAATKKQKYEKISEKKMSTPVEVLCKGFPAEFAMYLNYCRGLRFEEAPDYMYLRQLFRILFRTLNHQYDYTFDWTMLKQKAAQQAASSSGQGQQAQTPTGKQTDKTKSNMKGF
UniProt P48730: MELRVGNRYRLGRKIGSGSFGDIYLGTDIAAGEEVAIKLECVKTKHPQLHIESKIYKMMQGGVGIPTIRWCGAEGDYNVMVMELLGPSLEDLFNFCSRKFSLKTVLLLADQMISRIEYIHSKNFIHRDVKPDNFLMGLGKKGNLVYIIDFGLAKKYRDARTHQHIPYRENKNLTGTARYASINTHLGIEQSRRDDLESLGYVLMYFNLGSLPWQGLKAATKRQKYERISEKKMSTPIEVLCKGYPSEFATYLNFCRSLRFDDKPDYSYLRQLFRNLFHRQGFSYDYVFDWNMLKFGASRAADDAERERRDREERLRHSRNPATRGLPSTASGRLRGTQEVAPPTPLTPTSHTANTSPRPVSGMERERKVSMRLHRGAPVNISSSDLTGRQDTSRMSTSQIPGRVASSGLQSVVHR
UniProt Q9Y463, whole entry, looked up: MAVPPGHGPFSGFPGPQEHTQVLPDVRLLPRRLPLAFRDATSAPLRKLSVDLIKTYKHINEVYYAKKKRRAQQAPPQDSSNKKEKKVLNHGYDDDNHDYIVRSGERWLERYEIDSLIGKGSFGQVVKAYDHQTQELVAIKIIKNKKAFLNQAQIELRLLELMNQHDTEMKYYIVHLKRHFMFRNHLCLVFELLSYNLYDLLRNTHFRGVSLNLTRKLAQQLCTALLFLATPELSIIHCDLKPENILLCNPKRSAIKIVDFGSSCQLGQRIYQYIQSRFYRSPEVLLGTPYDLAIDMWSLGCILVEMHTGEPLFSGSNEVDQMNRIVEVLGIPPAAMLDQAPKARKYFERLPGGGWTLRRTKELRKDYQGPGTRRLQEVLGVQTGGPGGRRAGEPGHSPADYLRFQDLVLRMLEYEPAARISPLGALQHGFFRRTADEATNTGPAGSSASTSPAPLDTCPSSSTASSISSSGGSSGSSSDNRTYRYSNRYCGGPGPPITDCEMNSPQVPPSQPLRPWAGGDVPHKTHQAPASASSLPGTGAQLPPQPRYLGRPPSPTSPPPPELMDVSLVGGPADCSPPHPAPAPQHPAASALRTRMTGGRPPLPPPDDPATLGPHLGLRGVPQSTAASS
UniProt Q92630: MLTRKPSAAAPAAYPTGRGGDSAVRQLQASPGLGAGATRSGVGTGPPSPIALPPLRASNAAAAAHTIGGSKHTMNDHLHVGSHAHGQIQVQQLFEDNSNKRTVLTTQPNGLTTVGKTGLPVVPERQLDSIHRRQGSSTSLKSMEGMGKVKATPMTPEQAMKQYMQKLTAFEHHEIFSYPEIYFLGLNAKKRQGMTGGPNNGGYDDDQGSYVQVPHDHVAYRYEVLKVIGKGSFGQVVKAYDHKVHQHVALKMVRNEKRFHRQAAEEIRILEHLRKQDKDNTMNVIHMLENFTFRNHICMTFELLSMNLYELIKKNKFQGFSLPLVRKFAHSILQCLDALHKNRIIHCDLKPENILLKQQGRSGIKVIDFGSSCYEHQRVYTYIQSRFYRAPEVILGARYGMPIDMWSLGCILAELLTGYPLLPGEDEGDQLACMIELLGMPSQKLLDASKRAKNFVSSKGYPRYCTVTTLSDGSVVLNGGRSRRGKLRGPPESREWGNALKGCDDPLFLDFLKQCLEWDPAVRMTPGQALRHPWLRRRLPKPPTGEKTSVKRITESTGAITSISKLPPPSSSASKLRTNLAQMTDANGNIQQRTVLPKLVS
UniProt P29317, whole entry: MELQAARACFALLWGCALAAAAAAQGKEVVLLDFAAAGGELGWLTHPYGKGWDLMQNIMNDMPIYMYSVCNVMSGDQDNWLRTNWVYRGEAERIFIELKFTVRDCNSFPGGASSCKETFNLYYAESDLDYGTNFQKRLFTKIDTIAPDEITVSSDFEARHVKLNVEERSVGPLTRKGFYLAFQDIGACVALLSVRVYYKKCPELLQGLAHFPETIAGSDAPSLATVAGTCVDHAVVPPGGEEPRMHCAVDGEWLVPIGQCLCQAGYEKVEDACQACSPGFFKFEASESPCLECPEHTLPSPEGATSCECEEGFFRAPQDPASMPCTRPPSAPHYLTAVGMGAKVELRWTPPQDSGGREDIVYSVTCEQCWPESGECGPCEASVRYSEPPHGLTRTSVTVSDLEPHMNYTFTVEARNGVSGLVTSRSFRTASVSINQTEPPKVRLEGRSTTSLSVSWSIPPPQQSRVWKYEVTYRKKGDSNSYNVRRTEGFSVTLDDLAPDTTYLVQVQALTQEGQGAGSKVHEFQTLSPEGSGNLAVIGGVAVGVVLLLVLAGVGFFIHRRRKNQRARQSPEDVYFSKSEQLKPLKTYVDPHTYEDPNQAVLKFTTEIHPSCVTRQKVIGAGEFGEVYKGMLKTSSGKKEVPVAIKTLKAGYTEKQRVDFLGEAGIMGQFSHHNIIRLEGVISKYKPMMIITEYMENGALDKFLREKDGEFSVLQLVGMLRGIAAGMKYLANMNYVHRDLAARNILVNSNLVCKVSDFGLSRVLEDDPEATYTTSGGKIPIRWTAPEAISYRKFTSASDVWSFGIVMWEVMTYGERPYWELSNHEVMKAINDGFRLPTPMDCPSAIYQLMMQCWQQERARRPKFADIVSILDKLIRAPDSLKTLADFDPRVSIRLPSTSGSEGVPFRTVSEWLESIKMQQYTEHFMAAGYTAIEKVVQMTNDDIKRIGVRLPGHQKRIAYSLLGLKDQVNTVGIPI
UniProt P21860, whole entry: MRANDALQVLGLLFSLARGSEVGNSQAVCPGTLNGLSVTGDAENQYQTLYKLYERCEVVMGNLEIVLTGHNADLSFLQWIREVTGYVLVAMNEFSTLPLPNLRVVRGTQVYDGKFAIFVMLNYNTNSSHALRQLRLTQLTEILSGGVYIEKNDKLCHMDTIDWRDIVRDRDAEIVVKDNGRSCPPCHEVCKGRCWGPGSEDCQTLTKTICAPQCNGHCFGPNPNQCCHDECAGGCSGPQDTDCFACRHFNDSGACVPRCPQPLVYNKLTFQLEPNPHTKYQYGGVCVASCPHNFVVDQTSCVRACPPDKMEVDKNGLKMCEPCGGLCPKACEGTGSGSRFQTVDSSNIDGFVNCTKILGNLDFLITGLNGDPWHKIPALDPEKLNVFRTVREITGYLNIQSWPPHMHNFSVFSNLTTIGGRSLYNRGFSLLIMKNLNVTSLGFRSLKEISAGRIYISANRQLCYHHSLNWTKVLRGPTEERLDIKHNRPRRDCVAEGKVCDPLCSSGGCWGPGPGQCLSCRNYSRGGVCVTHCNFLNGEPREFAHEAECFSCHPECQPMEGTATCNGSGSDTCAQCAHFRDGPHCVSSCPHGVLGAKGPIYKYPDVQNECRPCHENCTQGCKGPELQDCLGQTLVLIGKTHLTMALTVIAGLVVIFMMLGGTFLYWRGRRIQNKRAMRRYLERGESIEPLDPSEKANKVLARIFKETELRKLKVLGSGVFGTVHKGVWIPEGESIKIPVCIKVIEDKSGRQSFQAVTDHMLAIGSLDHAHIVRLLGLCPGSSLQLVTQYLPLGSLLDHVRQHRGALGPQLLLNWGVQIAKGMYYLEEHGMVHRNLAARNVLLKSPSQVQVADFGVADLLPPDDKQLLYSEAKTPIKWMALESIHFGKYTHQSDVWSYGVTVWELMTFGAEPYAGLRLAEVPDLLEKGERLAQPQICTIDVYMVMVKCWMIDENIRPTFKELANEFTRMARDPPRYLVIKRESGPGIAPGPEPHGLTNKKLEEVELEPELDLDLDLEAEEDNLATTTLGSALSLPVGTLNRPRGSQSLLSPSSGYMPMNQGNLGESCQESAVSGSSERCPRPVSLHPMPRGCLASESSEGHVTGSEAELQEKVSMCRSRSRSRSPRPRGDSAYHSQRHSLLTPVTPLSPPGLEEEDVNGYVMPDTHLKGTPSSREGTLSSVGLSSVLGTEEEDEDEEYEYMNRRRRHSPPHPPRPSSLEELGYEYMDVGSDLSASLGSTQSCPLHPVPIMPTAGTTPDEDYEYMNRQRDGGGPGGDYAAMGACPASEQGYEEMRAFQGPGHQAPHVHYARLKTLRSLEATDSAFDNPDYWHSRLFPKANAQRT
UniProt O75460: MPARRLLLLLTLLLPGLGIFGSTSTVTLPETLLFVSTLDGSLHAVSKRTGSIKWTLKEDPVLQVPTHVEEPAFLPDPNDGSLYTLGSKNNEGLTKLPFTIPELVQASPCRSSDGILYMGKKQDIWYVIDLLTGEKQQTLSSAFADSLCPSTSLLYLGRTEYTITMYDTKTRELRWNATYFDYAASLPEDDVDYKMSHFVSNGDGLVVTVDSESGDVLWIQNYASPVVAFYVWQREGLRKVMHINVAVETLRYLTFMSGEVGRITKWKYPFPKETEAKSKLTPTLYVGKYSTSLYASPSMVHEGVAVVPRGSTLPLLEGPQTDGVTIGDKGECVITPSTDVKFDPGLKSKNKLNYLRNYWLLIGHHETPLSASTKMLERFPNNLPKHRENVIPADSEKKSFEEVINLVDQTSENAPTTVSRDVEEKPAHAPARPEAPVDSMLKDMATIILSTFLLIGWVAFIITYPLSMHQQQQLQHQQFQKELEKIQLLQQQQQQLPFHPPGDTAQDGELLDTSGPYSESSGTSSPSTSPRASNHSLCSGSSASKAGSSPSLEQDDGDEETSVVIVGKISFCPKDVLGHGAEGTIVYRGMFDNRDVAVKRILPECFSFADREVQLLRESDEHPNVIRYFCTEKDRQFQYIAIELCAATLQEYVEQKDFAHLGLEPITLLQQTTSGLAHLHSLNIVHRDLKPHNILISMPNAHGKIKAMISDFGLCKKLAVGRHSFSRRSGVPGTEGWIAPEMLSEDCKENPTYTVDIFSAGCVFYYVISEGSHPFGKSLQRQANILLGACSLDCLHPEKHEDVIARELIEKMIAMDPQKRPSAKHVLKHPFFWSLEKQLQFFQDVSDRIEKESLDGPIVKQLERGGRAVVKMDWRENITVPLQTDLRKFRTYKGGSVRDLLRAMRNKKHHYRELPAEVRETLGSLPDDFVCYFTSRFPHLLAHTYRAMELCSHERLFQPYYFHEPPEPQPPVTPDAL
UniProt P11362, whole entry, looked up: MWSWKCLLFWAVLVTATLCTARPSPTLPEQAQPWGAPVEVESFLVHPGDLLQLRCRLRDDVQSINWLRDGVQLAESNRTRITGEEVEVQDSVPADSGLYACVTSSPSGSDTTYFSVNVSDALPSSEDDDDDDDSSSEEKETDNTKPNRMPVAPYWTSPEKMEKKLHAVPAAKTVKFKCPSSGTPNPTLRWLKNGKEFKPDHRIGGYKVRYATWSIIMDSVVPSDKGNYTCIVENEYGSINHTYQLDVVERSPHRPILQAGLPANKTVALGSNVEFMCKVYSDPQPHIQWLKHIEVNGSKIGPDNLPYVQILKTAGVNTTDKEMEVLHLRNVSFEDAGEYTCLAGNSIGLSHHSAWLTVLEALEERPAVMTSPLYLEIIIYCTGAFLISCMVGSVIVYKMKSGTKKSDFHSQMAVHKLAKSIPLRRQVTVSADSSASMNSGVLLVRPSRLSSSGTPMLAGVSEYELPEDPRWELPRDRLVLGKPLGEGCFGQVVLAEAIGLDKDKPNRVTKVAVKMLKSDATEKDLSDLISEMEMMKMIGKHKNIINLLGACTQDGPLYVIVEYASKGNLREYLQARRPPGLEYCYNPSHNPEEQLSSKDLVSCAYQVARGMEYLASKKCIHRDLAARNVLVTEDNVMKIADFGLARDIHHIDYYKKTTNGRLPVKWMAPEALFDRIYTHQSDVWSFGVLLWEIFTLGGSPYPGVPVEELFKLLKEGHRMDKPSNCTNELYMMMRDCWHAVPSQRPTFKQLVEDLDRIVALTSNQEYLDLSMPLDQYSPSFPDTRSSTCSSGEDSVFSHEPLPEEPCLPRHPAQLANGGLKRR

How the values were obtained:
Assay in all cases: number of time points (of 5) at which kinase-Nluc abundance scored as decreased, DMSO-normalised (count); higher = more persistent destabilization
Conditions in all cases: K562; 2-18 h
CSNK1A1 = CSNK1A1 (UniProt P48729)
CSNK1D = CSNK1D (UniProt P48730)
DDR1 = DDR1 (UniProt Q08345)
DYRK1B = DYRK1B (UniProt Q9Y463)
DYRK2 = DYRK2 (UniProt Q92630)
EGFR = EGFR (UniProt P00533)
EGFR_G719S = EGFR_G719S (UniProt P00533)
EGFR_G719S_T790M = EGFR_G719S_T790M (UniProt P00533)
EGFR_L718V = EGFR_L718V (UniProt P00533)
EGFR_L858R = EGFR_L858R (UniProt P00533)
EGFR_L861Q = EGFR_L861Q (UniProt P00533)
EGFR_T790M = EGFR_T790M (UniProt P00533)
EPHA2 = EPHA2 (UniProt P29317)
ERBB3 = ERBB3 (UniProt P21860)
[1] = target: ERBB4_R711C (clone: ERBB4_mut) (UniProt Q15303)
ERN1 = ERN1 (UniProt O75460)
FGFR1 = FGFR1 (UniProt P11362)
FGFR2 = FGFR2 (UniProt P21802)
FGFR3 = FGFR3 (UniProt P22607)
FGR = FGR (UniProt P09769)

Measured: number of time points

COCCOc1cnc2ccn([C@H](C)c3nnc4c(F)cc(-c5cnn(C)c5)cn34)c(=O)c2c1 (10 µM)
0: all assays above

COc1ccc(Cl)cc1N(CC(=O)Nc1ccc2c(c1)OCO2)S(=O)(=O)c1ccccc1 (2.5 µM)
0: all assays above

N=C(NC(=N)N1CCCC1)Nc1ccc(OC(F)(F)F)cc1 (10 µM)
0: all assays above

CC1(C)C=Cc2c(ccc(C(=O)/C=C/c3ccc(O)cc3)c2O)O1 [4-Hydroxylonchocarpin] (10 µM)
0: all assays above

C[C@@H]1COC(Nc2ccc3ncnc(Nc4ccc(OCc5nccs5)c(Cl)c4)c3c2)=N1 [Varlitinib] (10 µM)
1: DYRK1B
0: all other assays above

2 records picked at random from those above:
COCCOc1cnc2ccn([C@H](C)c3nnc4c(F)cc(-c5cnn(C)c5)cn34)c(=O)c2c1 (10 µM)
0: all assays above

N=C(NC(=N)N1CCCC1)Nc1ccc(OC(F)(F)F)cc1 (10 µM)
0: all assays above

Continued:

O=C1C=CC2=C3c4cc(O)c(O)cc4CC3(O)COC2=C1O (stereo not given) [Hematein] (10 µM)
0: all assays above

Cc1cncc2cccc(S(=O)(=O)N3CCCNC[C@@H]3C)c12 [H-1152 (dihydrochloride)] (10 µM)
0: all assays above

Oc1ccc(-c2cnc3ccc(NCc4ccco4)nn23)cc1 [IRAK inhibitor 2] (2.5 µM)
0: all assays above

O=C(C#Cc1ccccc1)c1cccc([N+](=O)[O-])c1 (10 µM)
0: all assays above

Nc1ccc(C(=O)Nc2cccc(-c3nc(N4CCOCC4)c4oc5ncccc5c4n3)c2)cn1 (10 µM)
5: DYRK2
0: all other assays above

O=C(NCc1ccn[nH]1)c1cc([C@@H]2CCNC[C@H]2COc2ccc3c(c2)OCO3)ccc1F [GRK2-IN-1 (hydrochloride)] (10 µM)
0: all assays above

COc1cc2nnc(C(N)=O)c(Nc3ccc(C)cc3F)c2cc1N1CCN(CCO)CC1 (2.5 µM)
0: all assays above

COc1c(Nc2ncc(Cl)c(N[C@H]3[C@@H](C(N)=O)[C@@H]4C=C[C@H]3C4)n2)ccc2c1CC[C@@H](N1CCOCC1)CC2 (10 µM)
0: all assays above

Cn1cc(-c2nc(N[C@@H]3CCCC[C@@H]3N)c(F)c3c2C(=O)NC3)cn1 [TAK-659 (hydrochloride)] (2 µM)
0: all assays above

CC(C1CC1)n1cnc2c(NCc3cccc(C(F)(F)F)c3)nc(NCCN(C)C)nc21 (stereo not given) (10 µM)
0: all assays above

NCCNS(=O)(=O)c1ccc(Cl)c2ccncc12 [CKI-7 (free base)] (10 µM)
0: all assays above

Cc1ccc(NC(=O)N2CCN(c3nc(N)nc4sc(-c5cccnc5)nc34)CC2)cc1 [PI4KIII beta inhibitor 3] (10 µM)
0: all assays above

C=CC(=O)Nc1cccc(Oc2nc(Nc3ccc(N4CCN(C)CC4)cc3OC)ncc2Cl)c1 (10 µM)
0: all assays above

O=C1CCC(N2C(=O)c3cccc(OCCCCCOc4ccc(CC(=O)Nc5cc(C6CCC6)[nH]n5)cc4)c3C2=O)C(=O)N1 (stereo not given) [PROTAC CDK9 Degrader-1] (10 µM)
1: CSNK1A1
2: EGFR_L861Q | ERBB3
3: [1]
0: all other assays above

CCCCC(=O)OCC(=O)[C@]1(O)Cc2c(O)c3c(c(O)c2[C@@H](O[C@H]2C[C@H](NC(=O)C(F)(F)F)[C@H](O)[C@H](C)O2)C1)C(=O)c1c(OC)cccc1C3=O [Valrubicin] (10 µM)
1: DYRK2 | FGFR2
0: all other assays above

Cc1nn(CC(F)(F)F)cc1Nc1ncc(Br)c(NCc2ccc(S(N)(=O)=O)cc2)n1 (10 µM)
0: all assays above

O=c1cc(-c2ccc(O[C@@H]3O[C@H](CO)[C@@H](O)[C@H](O)[C@H]3O)cc2)oc2cc(O)c([C@@H]3O[C@H](CO)[C@@H](O)[C@H](O)[C@H]3O[C@@H]3OC[C@H](O)[C@H](O)[C@H]3O)c(O)c12 [Vaccarin] (10 µM)
0: all assays above
